# Measured values taken from publication PMC5342110.
# The chains behind the UniProt entries cited, without tags or fusion partners. Residues count along the entry.
# UniProt O60674: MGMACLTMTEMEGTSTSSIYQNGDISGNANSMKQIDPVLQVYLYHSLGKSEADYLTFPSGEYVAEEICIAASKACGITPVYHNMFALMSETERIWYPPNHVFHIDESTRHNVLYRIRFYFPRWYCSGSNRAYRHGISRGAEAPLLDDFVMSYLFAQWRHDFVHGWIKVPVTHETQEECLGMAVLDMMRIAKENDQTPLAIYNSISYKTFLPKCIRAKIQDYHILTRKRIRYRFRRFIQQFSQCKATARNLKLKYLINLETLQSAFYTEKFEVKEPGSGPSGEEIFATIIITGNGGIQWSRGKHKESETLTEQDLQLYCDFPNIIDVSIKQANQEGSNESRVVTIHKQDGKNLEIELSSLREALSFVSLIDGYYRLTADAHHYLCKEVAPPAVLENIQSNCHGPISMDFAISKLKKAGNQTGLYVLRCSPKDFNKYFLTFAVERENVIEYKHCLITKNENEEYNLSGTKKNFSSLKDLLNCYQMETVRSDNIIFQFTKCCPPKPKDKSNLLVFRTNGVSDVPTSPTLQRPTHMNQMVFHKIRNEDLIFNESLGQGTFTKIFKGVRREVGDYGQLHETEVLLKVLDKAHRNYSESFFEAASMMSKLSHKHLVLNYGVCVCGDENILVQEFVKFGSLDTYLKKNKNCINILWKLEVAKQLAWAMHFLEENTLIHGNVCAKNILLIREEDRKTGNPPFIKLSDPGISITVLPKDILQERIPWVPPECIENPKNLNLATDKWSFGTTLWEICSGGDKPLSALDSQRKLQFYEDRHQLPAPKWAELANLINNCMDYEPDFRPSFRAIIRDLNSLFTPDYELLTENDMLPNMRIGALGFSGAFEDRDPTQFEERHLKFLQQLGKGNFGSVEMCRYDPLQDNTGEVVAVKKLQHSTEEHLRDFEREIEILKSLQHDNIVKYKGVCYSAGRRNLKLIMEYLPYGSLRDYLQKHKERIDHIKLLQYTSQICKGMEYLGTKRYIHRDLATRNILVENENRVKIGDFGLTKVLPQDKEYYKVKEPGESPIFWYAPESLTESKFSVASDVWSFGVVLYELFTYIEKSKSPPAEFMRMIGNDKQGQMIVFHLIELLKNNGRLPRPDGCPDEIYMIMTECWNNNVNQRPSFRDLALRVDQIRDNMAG
# UniProt P22301, residues 19-178: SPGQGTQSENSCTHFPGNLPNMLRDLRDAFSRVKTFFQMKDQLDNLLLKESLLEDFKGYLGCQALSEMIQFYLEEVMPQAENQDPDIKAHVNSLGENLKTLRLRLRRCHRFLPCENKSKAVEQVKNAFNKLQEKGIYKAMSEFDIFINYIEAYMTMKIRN
# No constants are given. Whether binding was seen depends on the method and setting. In cells and extracts the contact can be indirect. Some results given as binding are weak or reduced against the parent protein; the word gives no strength.
# Biological target: GST-JAK2 (full-length) (UniProt O60674)
# Test: pull-down; GST-JAK2 (full-length) or GST-Tag mixed with cell lysates expressing His-IL-10 for 1 h at 4 C; 50 mM Tris-HCl pH 7.5, 0.05% Triton X-100, 300 mM NaCl; immunoblot for His-IL-10; only the target purified
substance,measurement,value
His-IL-10 (from UniProt P22301 19-178),binding,binds
